Data taken from PMC9465852, “Comparative analyses of vertebrate CPEB proteins define two subfamilies with coordinated yet distinct functions in post-transcriptional gene regulation”.
Like-named read-outs stand apart in the source and are kept apart here. No constants are given. Whether binding was seen depends on the method and setting. Binding seen in cells or lysates may run through a third protein. Binding can be weak; no strength is given. For some of these results: Where a sequence is shown, tags or fusion partners need not be part of it.

Chains of the proteins cited; added tags and fusions are not shown. Lines headed by an entry give the natural chain unless they say otherwise; changes in a name come on top.
UniProt Q91572: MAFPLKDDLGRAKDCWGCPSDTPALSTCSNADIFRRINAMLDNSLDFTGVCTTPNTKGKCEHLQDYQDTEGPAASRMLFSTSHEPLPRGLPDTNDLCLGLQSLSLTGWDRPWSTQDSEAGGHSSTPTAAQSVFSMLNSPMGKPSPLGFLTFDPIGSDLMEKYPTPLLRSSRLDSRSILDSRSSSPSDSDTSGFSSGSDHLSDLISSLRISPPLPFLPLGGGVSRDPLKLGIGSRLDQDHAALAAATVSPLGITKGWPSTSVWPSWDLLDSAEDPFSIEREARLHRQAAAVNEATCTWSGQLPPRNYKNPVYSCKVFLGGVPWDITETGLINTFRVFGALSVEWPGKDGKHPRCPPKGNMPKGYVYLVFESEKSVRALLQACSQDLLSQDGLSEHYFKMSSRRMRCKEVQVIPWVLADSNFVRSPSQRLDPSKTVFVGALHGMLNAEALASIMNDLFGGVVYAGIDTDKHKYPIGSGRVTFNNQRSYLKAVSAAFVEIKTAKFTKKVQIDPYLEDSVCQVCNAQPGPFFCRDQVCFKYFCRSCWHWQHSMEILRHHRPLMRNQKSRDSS
UniProt Q9PTG8: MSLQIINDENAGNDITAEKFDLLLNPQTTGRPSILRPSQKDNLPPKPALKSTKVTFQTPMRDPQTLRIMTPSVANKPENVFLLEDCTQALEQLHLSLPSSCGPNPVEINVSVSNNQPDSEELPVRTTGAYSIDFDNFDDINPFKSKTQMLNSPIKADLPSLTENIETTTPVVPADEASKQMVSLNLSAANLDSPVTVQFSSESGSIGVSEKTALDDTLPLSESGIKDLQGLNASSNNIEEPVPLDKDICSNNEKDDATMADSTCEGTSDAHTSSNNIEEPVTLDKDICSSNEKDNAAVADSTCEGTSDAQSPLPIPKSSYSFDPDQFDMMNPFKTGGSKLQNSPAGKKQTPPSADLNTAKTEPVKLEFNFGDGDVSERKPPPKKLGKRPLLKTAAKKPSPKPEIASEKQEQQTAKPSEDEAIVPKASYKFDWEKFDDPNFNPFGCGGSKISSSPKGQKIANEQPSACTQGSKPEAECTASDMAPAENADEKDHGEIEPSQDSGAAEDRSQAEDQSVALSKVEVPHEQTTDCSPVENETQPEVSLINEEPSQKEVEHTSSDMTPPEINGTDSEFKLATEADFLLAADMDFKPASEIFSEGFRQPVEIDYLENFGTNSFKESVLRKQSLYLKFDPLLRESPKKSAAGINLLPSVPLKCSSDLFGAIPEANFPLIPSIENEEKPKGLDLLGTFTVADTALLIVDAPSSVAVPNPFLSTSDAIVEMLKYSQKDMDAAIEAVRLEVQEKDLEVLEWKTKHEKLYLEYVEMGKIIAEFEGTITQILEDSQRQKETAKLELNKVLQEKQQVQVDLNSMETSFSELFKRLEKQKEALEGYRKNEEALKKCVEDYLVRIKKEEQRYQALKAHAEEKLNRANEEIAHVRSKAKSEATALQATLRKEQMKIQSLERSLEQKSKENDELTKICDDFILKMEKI

T1: HA-GLD2 (UniProt Q641A1)
T1 sequence: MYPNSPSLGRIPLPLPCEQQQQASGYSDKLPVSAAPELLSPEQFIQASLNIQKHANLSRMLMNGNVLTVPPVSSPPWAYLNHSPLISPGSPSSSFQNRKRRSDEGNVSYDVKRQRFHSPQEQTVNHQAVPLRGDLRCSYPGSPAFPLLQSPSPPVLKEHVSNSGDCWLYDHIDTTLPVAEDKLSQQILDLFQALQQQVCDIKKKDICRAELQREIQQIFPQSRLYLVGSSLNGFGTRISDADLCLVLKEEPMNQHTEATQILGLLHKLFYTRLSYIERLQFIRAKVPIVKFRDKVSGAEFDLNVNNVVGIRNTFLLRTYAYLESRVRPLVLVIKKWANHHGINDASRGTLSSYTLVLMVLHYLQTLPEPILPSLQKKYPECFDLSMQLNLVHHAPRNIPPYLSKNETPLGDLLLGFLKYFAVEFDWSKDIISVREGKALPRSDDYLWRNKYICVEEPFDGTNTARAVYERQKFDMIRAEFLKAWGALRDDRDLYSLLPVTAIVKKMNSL

B1: Symplekin (SYMPK) (protein, UniProt Q7ZYV9 1-1202)
chain: MAVSMASQFFSQEEGTSEVVSTSERVVELLNMAALATNDTKITMLKQVQELIINKDPTLLDNFLDEIIAFQADKSVEVRKIVVNFIEEACKLDNELLIKLIANLHMLLKDENVNVVKKSILTMTQLYKVALQWVARSRPPSEQQESCWDLVTEMAADILLLLESDNDGMRTHAVKFVESLIVTLSPRTADSEVPKRQDGDISLEQIPPDHQFLKYNTLRDLGKQAVKELLKFMAHPAISSINLTAALGSLASIARQRPMFMAEVIQAYETLHANLPPTLAKSQVSSVRKNLKLQLLSVLRHPSSYEYQGPISTLLLDLGTSQGEITRHLPPPRDSNRKRAREDGEGGQKKSRTDIPLPDDDDDKDTMQLPTIPAPAPSTQSATDITADFVRPLLSPENVANLVLISMVYLPDSMPASFQSTYTPVESAGTDSQIRHLARLMATQMSAAGIGPGVEQSKDIPVDVVEEENIKPEGLVIKRRISALTKGQAISVLGCQSEKTKEEEEEEDDAPLAKKRPEPILPATQIRPSGVGGRKKVFRLKEVTEPLTDVQIKSLKLGAVRRILQAERSVGSSGASQMRVKVLARLVTQLDISVKAEVLSHFLNDPRMRLDLALAWLYQEYCEYQSGAGEEGYQECLIGILTGLQERPDQRDGVFTKVVLEAPLLTDSALDVLRKYCEDEGRSYLGMSTLRDLILTRPARQFQYLHLLLDLSSHEKDKIRQQSLHFIKRMYEKESLRPYIEKFALNYLQLLVHPNPPSVLFGADKDTEVAAPWTEDTVKQCLYLYLALLPQNHKLIHELASVYTEATADIKRTVLRVIETPIRGMGMNSPELLLLVENCPKGAETLVTRCLHILTDKVPPSPELVKRVRELYHKRLPDVRFLIPVLNGLDKKEVIQALPKLIKLNPIVVKEVFNRLLGTQHGEVSSSLSPLTPGDLLVALHNIDSSKCDMKSVIKATNLCFSARSVYTSEVLAVVLQQLMDTTPLPMLLMRTVIQALGMYPRLGGFIMNILTRLIYKQVWKYPKVWEGFIKCCQRTKPQSFSVLLQLPPPQLLSVLQTSPDLRDPLLAHVRAFTPHQLAHVPHSIMAILEAESRTDAGAEEAAQVEEEQETPAQDIIARRLAQEKSLKKQIEEQKGRNNQEMEEVAEVDPPAIFIAEEEEEESLKSQGKEEPQEDSSSNATTAEKSPVADEPMEEEPVEKKD
B2: PARN (protein, UniProt Q90ZA1 1-631)
chain: MEITRSNFKDTLPKVYKAIEEADFLAIDGEFSGISDGPSVSTLTNGFDTPEERYTKLKKHSMEFLLFQFGLCTFNYDNTEAKYLMKSFNFYIFPKPFNRNSPDKKFVCQSSSIDFLANQGFDFNKVFRNGIPYLNQEEERVLRDQYEDRRSQSNGASTMSYISPNSSKTPVSIPDEQKGFIDKVVERVEDFLKNEQKSMNVEPCTGYQRKLIYQTLNWKYPRGIHVETVESEKKERYIVISKVDEEERKRMEQQKQAKEREELDDAVGFSRIIQAISSSGKLVVGHNMLLDVMHTIHQFFCQLPDELNEFKEVTNCVFPRVLDTKLMASTNPFKEIIYNTSLAELEKRLKEAPFKPPKVDSAEGFQSYNTASEQLHEAGYDAYITGLCFISMANYLGSFLSPPKDYVSCRSKIVRPFFNKLFLMRIMDIPYLNLEGPDLQPKRDNVLHVTFPKEWKTSDLYQLFSAFGNIQVSWIDDTSAFVSLSQPEQVQIAVNTSKYAESYRIQTYAEYIEKKNDESQTKRKWAEDGWKDLERKRLKTQYNSYIPQNPVFYGNCFAPSFAVKRSMSPIQEEAASDDTEEVHTHENDPSNPGATEQGKKPKNHKRQKIDSAPPETSDGGSSVLFEVPDTW

Legend:
[1] = molecular target: T1, HA-GLD2; assay: co-IP; HA-tagged partner as bait from injected RNA in stage VI oocytes; anti-HA magnetic beads; endogenous CPEB1 by Western blot (Fig. 3C)
[2] = molecular target: HA-tagged CPEB1 (Xenopus laevis) (UniProt Q91572); assay: co-IP; HA-tagged CPEB as bait from injected RNA in stage VI oocytes; lysis in 20 mM Tris-HCl pH 8, 100 mM NaCl, 0.4% NP40, 1 mM EDTA, 1 mM MgCl2; anti-HA magnetic beads; endogenous preys by Western blot
[3] = molecular target: HA-tagged CPEB2 (Xenopus laevis); assay: as above
[4] = molecular target: HA-tagged CPEB1 (Xenopus laevis) (UniProt Q91572); assay: as above; remark: listed apart in the source
[5] = molecular target: HA-tagged CPEB1(Y365A) (Xenopus laevis) (UniProt Q91572); assay: as above

| Molecule | binding [1] | binding [2] | binding [3] | binding [4] | binding [5] |
| --- | --- | --- | --- | --- | --- |
| endogenous CPEB1 (from UniProt Q91572) | binds | binds | binds |  |  |
| Maskin (from UniProt Q9PTG8 1-931) |  | no binding |  |  |  |
| B1 |  |  |  | binds | binds |
| B2 |  |  |  | no binding |  |
